Among the data in patent US20040086949A1 (Statens Serum Institut, priority 1998, published 2004) are isolated yield values, retold here.

This data set can be described thus: general procedure: Fmoc solid-phase peptide synthesis; TentaGel S NH2 with HMPA linker; DIC/HOAt; TBTU; PyAOP/DIEA. The conditions noted are these: whole synthesis.

Consider “HC(CH2CO-LysGluProAsnLysGlyValAsnProAspGluValβAla)2COOH”, for which the isolated yield result is given as “approx. 20% yield”.
